# Measured values taken from PubChem BioAssay AID493014 (National Center for Advancing Translational Sciences (NCATS), 2011).
# The campaign covered roughly 340,000 compounds. About 170 (0.05%) were called active. This list was built around the results that the source calls inconclusive (neither active nor inactive); the mix of calls is not that of the screen. Calls follow the shape of the dose curve; as a rule, active = well fitted inhibition curve with a large enough effect in the signal ratio, with a control signal flat (not every such curve was filed as active); inconclusive = small, poorly fitted or top-dose-only effect, or effect the other way, or a change in a side signal; inactive = flat fitted curve, though single readings scatter; the % refers to the signal ratio. A potency beside an inconclusive call is a rough fit, not a confirmed value.
# Test: qHTS Assay to Find Inhibitors of Chronic Active B-Cell Receptor Signaling;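 as to activity change, negative = inhibition: plate controls were basal doxycycline-induced cells for no effect and cells given 10 µM MG132 for full effect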
# Conditions: ABC-DLBCL IkBa-CBG/CBR reporter, luminescence ratio (green luciferase fused to IkBa over red control in TMD8 lymphoma cells), 4 h; activity change, negative = inhibition: at 46.1 µM (top of the series)
# In short: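 TMD8 human ABC-DLBCL cells with doxycycline-inducible IκBα–green luciferase fusion and unfused red luciferase, in 0.5% FBS medium; compounds up to 46 uM, 4 h at 37C. Green/red luminescence ratio, filter-overlap corrected, fitted to concentration-response curves.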
# Potency is read from the fitted curve at half-maximal effect.
SMILES,"activity change, negative = inhibition",Potency
CCOC(=O)N1CCN(S(=O)(=O)c2ccc(Br)s2)CC1,inactive: 7.52%,–
COc1ccc2nc(/N=C(\N)NC(=O)Nc3ccccc3)nc(C)c2c1,inconclusive: -5.86%,–
Oc1ccc(Br)cc1C=Nc1cccn2cc(-c3ccccc3)nc12,–,"inconclusive: 25.1 µM [falling, partial curve]"
COc1cc(NC(=O)COC(=O)Cc2ccc(-c3ccccc3)cc2)cc(OC)c1,inconclusive: -12.2%,–
CCCCNc1ccccc1C(=O)OCC(=O)Nc1ccc(S(N)(=O)=O)cc1,–,"inconclusive: 25.9 µM [falling, single point]"
O=C(CN1CCOCC1)N/N=C/c1cc2ccccc2nc1Cl,inconclusive: 1.88%,–
C=CCSC1=C(C#N)C(c2cc(Br)c(O)c(OC)c2)CC(=O)N1 (stereo unspecified),inconclusive: -17.8%,–
CC(=O)COc1ccc2c(-c3cccc([N+](=O)[O-])c3)cc(=O)oc2c1,inactive: 0.617%,–
Cc1nn2c(c1-c1ccccc1)NC1=C(C(=O)CCC1)C2c1ccccc1 (stereo unspecified),inconclusive: 9.74%,–
Cc1c(CCOC(=O)CC23CC4CC(CC(C4)C2)C3)sc[n+]1Cc1ccccc1,–,"inconclusive: 17.8 µM [falling, single point]"
COCCCNC(=O)c1cc(=O)n(Cc2ccc(Cl)cc2)c2ccccc12,inactive: 6.04%,–
Cc1ccc(S(=O)(=O)CCC(=O)N(CCN2CCOCC2)c2nc3ccccc3s2)cc1,inactive: -5.55%,–
Cc1cc(C)cc(OCC(=O)Nc2ccc3c(c2)OCCO3)c1,–,"inconclusive: 25.1 µM [falling, single point]"
CCCCNC(=S)Nc1ccc(C(F)(F)F)cc1,inactive: -7.54%,–
O=C(COC(=O)Cc1cccc(C(F)(F)F)c1)NCc1ccco1,inactive: 4.51%,–
O=C(/C=C/c1ccccc1[N+](=O)[O-])Nc1cccnc1,–,"inconclusive: 29.1 µM [falling, single point]"
CCC(=O)OC1(C(=O)CCl)[C@@H](C)C[C@H]2[C@@H]3CCC4=CC(=O)C=C[C@]4(C)[C@@]3(F)[C@@H](O)C[C@@]21C (stereo partly specified),inconclusive: -1.7%,–
CC(C)CCn1c(=O)c(C(=O)N/N=C/c2cccc(F)c2)c(O)c2ccccc21,–,"inconclusive: 16.4 µM [falling, partial curve]"
O=C1c2ccccc2C(=O)C1(O)O,inconclusive: -14%,–
CC(NC(=O)C12CC3CC(CC(C3)C1)C2)C(=O)N/N=C/C1=C(N2CCOCC2)C(=C\c2ccccc2)/CC1 (stereo unspecified),inconclusive: 0.0984%,–
CCOC(=O)c1c(-c2ccc(OC)cc2)csc1/N=C/C1=C(O)CCCC1=O,inconclusive: -3.67%,–

SMILES,"activity change, negative = inhibition",Potency
O=C(N/N=C\C1CC=CCC1)c1ccc(Br)o1 (stereo unspecified),inconclusive: -16.4%,–
CCOc1ccc(NS(=O)(=O)c2ccc3c(c2)NC(=O)CCS3)cc1,inactive: -18.2%,–
COc1ccc2oc(-c3ccco3)cc(=O)c2c1,inactive: -1.23%,–
COc1ccc(C(=O)N[C@H](C(=O)Nc2ccc(OC)nc2)C(C)C)cc1,–,"inconclusive: 2.31 µM [rising, full curve, poor fit]"
CC1(C)Oc2ccc3ccc(=O)oc3c2/C(=C/NNC(N)=S)C1=O,–,"inconclusive: 25.1 µM [falling, partial curve, poor fit]"
CCc1cc(=O)[nH]c(SCC(=O)N2CCC(Cc3ccccc3)CC2)n1,–,"inconclusive: 29.1 µM [falling, single point]"
Cc1nc(NC(=O)c2cc3ccccc3o2)sc1C,inconclusive: 412%,–
CC(=O)Nc1ccc(S(=O)(=O)Oc2cccc(N3C(=O)C4CC=CCC4C3=O)c2)cc1 (stereo unspecified),–,"inconclusive: 29.1 µM [falling, partial curve, poor fit]"
COc1cccc(C(=O)NC2CCCc3ccccc32)c1OC (stereo unspecified),inactive: 0.587%,–
CCOc1cc2oc(=O)c3c(c2cc1Cl)CCC3,inconclusive: 7.13%,–
COc1ccc(C(=O)Nc2sc(C(=O)N(C)C)c(C)c2C#N)cc1[N+](=O)[O-],inconclusive: 3.33%,–
Cc1ccc(S(=O)(=O)N/N=C\c2cccnc2)cc1,inconclusive: -8.93%,–
C=CCS(=O)(=O)c1nc2ccccc2s1,–,"inconclusive: 11.2 µM [rising, partial curve, poor fit]"
O=C(CCS(=O)(=O)Cc1ccccc1)Nc1nnc(C(F)(F)F)s1,inconclusive: -2.86%,–
COc1ccc(-c2ccc(SCC(=O)N3CCOCC3)nn2)cc1OC,–,"inconclusive: 28.2 µM [falling, single point]"
COCCN(CC(=O)Nc1cccc(C)c1C)C(=O)c1oc2c(Cl)cccc2c1C,inactive: -1.09%,–
O=c1cc(CSc2nnnn2-c2ccccc2)[nH]c2[nH]n(-c3ccccc3)c(=O)c12,inconclusive: 17.8%,–
CC(=O)Nc1ccc(S(=O)(=O)N(C)c2ccc(OCC(=O)Nc3ccccc3C(C)=O)cc2)cc1,inconclusive: -16.8%,–
N#Cc1ccsc1NC(=O)c1ccccn1,inconclusive: -15.8%,–
Cc1cc(C)n(C(=O)c2cccc(S(=O)(=O)N3CCOCC3)c2)n1,inconclusive: 7.87%,–

# Pulled by structure from the list above:
SMILES,"activity change, negative = inhibition",Potency
Cc1cc(C)n(C(=O)c2cccc(S(=O)(=O)N3CCOCC3)c2)n1,inconclusive: 7.87%,–
O=C(/C=C/c1ccccc1[N+](=O)[O-])Nc1cccnc1,–,"inconclusive: 29.1 µM [falling, single point]"
